PubChem BioAssay AID1259254 | NCATS, 2017
The deposit covers about 59,000 reagents; below is a random part of them. About 1,550 of them (2.6%) were called active. 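G2 share is only a proxy for re-replication; each gene was hit by three separate siRNAs, and active genes were retested.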 Reagents against one gene are numbered here. Further read-outs or replicates are left out here. No sequences are given here. The record does not give: the amount of reagent.

- Test: 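Finding genes that stop cells copying their DNA twice in one cycle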 (primary screen)
- Cells: human HCT116 colorectal cancer cells
- Reagents: single siRNA against human genes
- Duration: 3 days
- Measured: 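Nuclei stained with Hoechst and imaged; cell-cycle phase assigned by DNA content; G2 share scaled per plate, non-targeting siRNA 0%, GMNN siRNA 100%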
- Reading the numbers: G2 robust z-score and G2 cells, % of GMNN control: higher = more G2 cells, more excess DNA replication
- Rule for the call: 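Active siRNAs have a G2 robust z of 5 or more median absolute deviations over the median, which in these data means about 38% or higher of GMNN control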

Depletion of SH2D4A (GeneID 63898) #1 gave: G2 robust z-score -0.304; G2 cells, % of GMNN control 0.829; inactive.
Knock-down of SH2D4A (GeneID 63898) #2 came out at: G2 robust z-score 1.74; G2 cells, % of GMNN control 15.2; inactive.
SH2D4A (GeneID 63898) #3 gave G2 robust z-score 0.431; G2 cells, % of GMNN control 6; inactive.
Depletion of MALSU1 (GeneID 115416) #1 gave: G2 robust z-score -0.918; G2 cells, % of GMNN control -3.49; inactive.
With knock-down of MALSU1 (GeneID 115416) #2, the record shows G2 robust z-score -1.05; G2 cells, % of GMNN control -4.41; inactive.
After knock-down of MALSU1 (GeneID 115416) #3, the screen gave G2 robust z-score -0.901; G2 cells, % of GMNN control -3.37; inactive.
CD200R1L (GeneID 344807) #1 scored G2 robust z-score 2.11; G2 cells, % of GMNN control 17.8; inactive.
With knock-down of CD200R1L (GeneID 344807) #2, the screen gave G2 robust z-score 6.66; G2 cells, % of GMNN control 49.8; active.
After knock-down of CD200R1L (GeneID 344807) #3, the screen gave G2 robust z-score -0.56; G2 cells, % of GMNN control -0.975; inactive.
RASGRP4 (GeneID 115727) #1 showed G2 robust z-score 2; G2 cells, % of GMNN control 17; inactive.
After knock-down of RASGRP4 (GeneID 115727) #2, the screen gave G2 robust z-score -0.738; G2 cells, % of GMNN control -2.22; inactive.
After knock-down of RASGRP4 (GeneID 115727) #3, the screen gave G2 robust z-score 1.16; G2 cells, % of GMNN control 11.1; inactive.
SLC2A2 (GeneID 6514) #1 gave G2 robust z-score -1.4; G2 cells, % of GMNN control -6.88; inactive.
SLC2A2 (GeneID 6514) #2 scored G2 robust z-score 0.195; G2 cells, % of GMNN control 4.34; inactive.
SLC2A2 (GeneID 6514) #3 gave G2 robust z-score -0.391; G2 cells, % of GMNN control 0.213; inactive.
Against CPSF3 (GeneID 51692) #1 the deposit lists G2 robust z-score -0.728; G2 cells, % of GMNN control -2.15; inactive.
Depletion of CPSF3 (GeneID 51692) #2 resulted in: G2 robust z-score 2.6; G2 cells, % of GMNN control 21.3; inactive.
For CPSF3 (GeneID 51692) #3, the entry reads G2 robust z-score 0.696; G2 cells, % of GMNN control 7.86; inactive.
With knock-down of DZIP3 (GeneID 9666) #1, the record shows G2 robust z-score 0.727; G2 cells, % of GMNN control 8.08; inactive.
Against DZIP3 (GeneID 9666) #2, the entry reads G2 robust z-score -1.11; G2 cells, % of GMNN control -4.87; inactive.
Silencing of DZIP3 (GeneID 9666) #3 came out at: G2 robust z-score 0.497; G2 cells, % of GMNN control 6.46; inactive.
ESR1 (GeneID 2099) #1 showed G2 robust z-score -1.37; G2 cells, % of GMNN control -6.68; inactive.
Depletion of ESR1 (GeneID 2099) #2 gave: G2 robust z-score 0.401; G2 cells, % of GMNN control 5.79; inactive.
Against ESR1 (GeneID 2099) #3, the entry reads G2 robust z-score 2.76; G2 cells, % of GMNN control 22.4; inactive.

Reagents listed so far marked active (1):
CD200R1L (GeneID 344807) #2 | G2 robust z-score = 6.66; G2 cells, % of GMNN control = 49.8; activity call = active
